The values that follow come from publication PMC10626543, “Native lamin A/C proteomes and novel partners from heart and skeletal muscle in a mouse chronic inflammation model of human frailty” (Frontiers in Cell and Developmental Biology, 2023).

Protein sequences, listed by entry. Tags and fused reporters are not part of them. Residues count along the entry.
UniProt P02545, residues 385-646: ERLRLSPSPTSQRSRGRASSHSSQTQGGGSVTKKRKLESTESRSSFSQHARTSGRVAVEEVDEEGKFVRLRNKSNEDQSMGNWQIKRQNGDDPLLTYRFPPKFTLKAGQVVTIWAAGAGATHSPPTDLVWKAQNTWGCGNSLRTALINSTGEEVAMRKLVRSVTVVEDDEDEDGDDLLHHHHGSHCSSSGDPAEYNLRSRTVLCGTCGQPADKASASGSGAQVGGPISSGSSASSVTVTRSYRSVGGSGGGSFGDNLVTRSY

Holding throughout (test): peptide or protein array; synthetic 20-mer peptides (7-residue offset) on cellulose; probed 3 h at room temperature with 190 nM His-tagged lamin A tail in casein blocking solution (TBS-T, sucrose, pH 7.0); bound lamin detected with anti-lamin A/C clone 14 and AP-conjugated secondary antibody; two experiments, each with an antibodies-only control; both purified
Experiment [1] addresses T1, Csrp3 peptide s10 (human).
T1 sequence (peptide): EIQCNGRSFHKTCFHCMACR

Experiment [2] addresses T2, Csrp3 peptide s11 (human).
T2 sequence (peptide): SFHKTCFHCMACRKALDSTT

Experiment [3] has as its target T3, Csrp3 peptide s7 (aa 1–20) (human).
T3 sequence (peptide): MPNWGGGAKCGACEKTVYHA

The target in a further experiment is T4, Csrp3 peptide s9 (human).
T4 sequence (peptide): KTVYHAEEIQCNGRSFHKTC

A further experiment deals with T5, Csrp3 peptide t5 (human).
T5 sequence (peptide): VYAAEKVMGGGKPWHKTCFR

Another experiment deals with T6, Csrp3 peptide t6 (human).
T6 sequence (peptide): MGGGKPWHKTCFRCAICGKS

The target of experiment [4] is T7, emerin peptide z10 (aa 183–202) (human).
T7 sequence (peptide): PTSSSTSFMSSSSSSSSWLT

Experiment [5] deals with T8, lamin C-specific peptide y3 (human).
T8 sequence (peptide): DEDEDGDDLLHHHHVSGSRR

These are yes or no findings as the source states them, for the method shown. Some entries that bind do so weakly or less than the wild type.

As for “recombinant lamin A tail (residues 385–646 of human mature lamin A) (from UniProt P02545 385-646) (domain or fragment)”, the binding entry (in experiment [1]; in experiment [2]; in experiment [3]; with Csrp3 peptide s9 (human); with Csrp3 peptide t5 (human); with Csrp3 peptide t6 (human)) was “binds weakly” throughout. Besides, the binding result is “binds weakly” in experiment [4] and “no binding (tested: 190 nM)” in experiment [5].
